Screening data, single-dose tests

Protein sequences, listed by entry. Tags and fused reporters are not part of them. Residues count along the entry.
UniProt P9WNZ1, whole entry: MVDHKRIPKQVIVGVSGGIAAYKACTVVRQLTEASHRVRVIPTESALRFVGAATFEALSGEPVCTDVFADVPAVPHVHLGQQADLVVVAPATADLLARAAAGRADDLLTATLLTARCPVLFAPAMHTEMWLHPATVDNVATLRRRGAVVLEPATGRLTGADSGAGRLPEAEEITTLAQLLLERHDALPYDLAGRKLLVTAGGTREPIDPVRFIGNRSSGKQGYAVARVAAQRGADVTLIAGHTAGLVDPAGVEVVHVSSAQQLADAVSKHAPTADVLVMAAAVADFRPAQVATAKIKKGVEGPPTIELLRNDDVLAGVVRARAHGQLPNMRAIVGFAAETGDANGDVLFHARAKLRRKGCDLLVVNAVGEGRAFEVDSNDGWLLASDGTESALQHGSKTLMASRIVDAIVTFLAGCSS
UniProt Q8IDJ8, 1-583: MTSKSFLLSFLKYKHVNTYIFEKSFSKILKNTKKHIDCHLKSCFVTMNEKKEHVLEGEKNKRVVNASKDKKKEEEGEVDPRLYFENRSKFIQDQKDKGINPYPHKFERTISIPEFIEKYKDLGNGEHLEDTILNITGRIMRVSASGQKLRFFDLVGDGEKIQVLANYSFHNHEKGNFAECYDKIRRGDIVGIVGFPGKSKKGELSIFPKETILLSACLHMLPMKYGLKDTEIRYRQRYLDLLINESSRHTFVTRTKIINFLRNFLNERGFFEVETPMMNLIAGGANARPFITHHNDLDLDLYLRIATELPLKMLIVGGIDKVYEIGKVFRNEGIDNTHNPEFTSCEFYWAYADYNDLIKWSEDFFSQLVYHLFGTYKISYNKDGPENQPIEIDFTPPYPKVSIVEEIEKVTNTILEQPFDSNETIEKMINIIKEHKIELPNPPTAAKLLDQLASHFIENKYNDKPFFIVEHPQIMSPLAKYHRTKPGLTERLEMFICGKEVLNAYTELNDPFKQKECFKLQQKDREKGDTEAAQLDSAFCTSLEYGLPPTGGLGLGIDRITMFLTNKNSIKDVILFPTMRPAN
UniProt A4I591, 1-473: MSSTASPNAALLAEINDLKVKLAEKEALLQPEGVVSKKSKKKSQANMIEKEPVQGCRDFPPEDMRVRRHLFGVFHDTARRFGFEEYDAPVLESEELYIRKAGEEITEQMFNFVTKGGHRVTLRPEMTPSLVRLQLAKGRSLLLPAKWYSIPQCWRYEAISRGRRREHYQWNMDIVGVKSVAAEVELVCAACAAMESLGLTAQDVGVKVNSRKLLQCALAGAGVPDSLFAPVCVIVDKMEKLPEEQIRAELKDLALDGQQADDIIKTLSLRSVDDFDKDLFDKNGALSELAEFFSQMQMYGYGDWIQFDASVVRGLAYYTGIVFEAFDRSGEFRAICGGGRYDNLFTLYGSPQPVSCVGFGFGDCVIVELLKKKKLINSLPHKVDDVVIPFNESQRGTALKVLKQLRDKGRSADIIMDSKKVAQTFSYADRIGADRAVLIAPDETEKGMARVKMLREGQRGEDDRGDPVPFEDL

The values are deposited in ChEMBL (CHEMBL3988442, “University of Dundee, Small-Polar-MMV Screening Library” (2021)).

A: 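Enzyme assay of CoaBC with a phosphate dye (Biomol Green) read at 650 nm. Target: Coenzyme A biosynthesis protein CoaBC, Mycobacterium tuberculosis (UniProt P9WNZ1). Tested at 30 µM. Higher reads as stronger inhibition, judged from the few compounds that gave an IC50. Most strong results did not repeat in a second test. Size under these conditions: about 67,000 compounds, about 40 of them at 50% or above in at least one test.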
B: 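Enzyme assay of the cytosolic lysyl-tRNA synthetase in 384-well plates, read by luminescence. Target: Lysine-tRNA ligase, Plasmodium falciparum 3D7 (UniProt Q8IDJ8). Tested at 30 µM. Direction is inferred from only a few compounds that gave an IC50; most scored high, so higher reads as stronger inhibition. Of about 69,000 compounds tested this way, about 49 (0.071%) reached 50% or more in at least one test.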
C: 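Enzyme assay of histidyl-tRNA synthetase; the read-out is not stated. Target: Histidine-tRNA ligase, Leishmania infantum (UniProt A4I591). Tested at 30 µM. Higher reads as stronger inhibition (inferred: compounds with an IC50 in retests scored well above the rest). The assay is labelled LdHisRS but filed under L. infantum. About 69,000 compounds were tested under these conditions; 0.6% (about 410) showed 50% or more at least once.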

The filed quantity is “Percent Effect” (%). How 0% and 100% were set is not recorded. Most values in the screen are low, and negative values occur. This is an unselected part of the compounds tested.

Compound: CCCc1nc(CN(CC)C(=O)c2ccc3[nH]cnc3c2)no1
A: 0.1209%
B: 0.9242%
C: 12.9%

Compound: Cn1cc(CN(C(=O)C2COc3ccccc3C2)C2CC2)cn1 (stereo not drawn)
A: 8.848%
B: 0.7383%
C: 8.602%

Compound: OCC1CCCN1c1cc(NCc2ccsc2)ncn1 (stereo not drawn)
A: -7.775%
B: 0.4689%
C: 11.97%

Compound: Cc1ccccc1CC(=O)N[C@@H]1CCC[C@@H](N2CCNC(=O)C2)[C@@H]1O
A: 3.65%
B: 1.114%
C: 9.474%

Compound: Cc1ccc2cc(C3(O)CCN(C)CC3)ccc2n1
A: 6.903%
B: 5.38%
C: -3.03%

Compound: Cc1cccc(-c2nc(CN3CCCC3Cn3cc(C)cn3)no2)c1 (stereo not drawn)
A: 7.506%
B: 3.935%
C: 4.348%

Compound: COCCN1CC(C(=O)N(C)Cc2cc(-c3cccnc3)no2)CC1=O (stereo not drawn)
B: 0.9194%
C: 10.83%

Compound: COCC1CN(Cc2ccncc2)Cc2nnn(CC3CC3)c21 (stereo not drawn)
A: 3.636%
B: 2.276%
C: -0.9434%

Compound: COCCN(C)C(=O)c1ccccc1-n1cc(CN(C)C)cn1
A: 8.516%
B: -0.2995%
C: 3.158%

Compound: Cc1ccc(CNCC2CCN(CC(O)c3ccccc3)CC2)o1 (stereo not drawn)
A: 1.399%
B: 2.402%
C: 14.78%

Compound: N#Cc1c(Cl)nsc1NCc1ccnc(OCC(F)(F)F)c1
A: 4.225%
B: 2.709%
C: 17.28%

Compound: CN(Cc1c[nH]nc1-c1ccc(F)cc1F)Cc1nccn1C
A: -1.985%
B: -0.6561%
C: -10.64%

Compound: Cc1ccc(C2CN(Cc3cnc(-c4ccccn4)s3)CCO2)o1 (stereo not drawn)
A: 0.2481%
B: -2.211%
C: -10.64%

Compound: CCOCCNC(=O)c1cc(COc2cncc(Cl)c2)on1
A: 2.066%
B: 3.025%
C: 6.667%

Compound: COCc1ccc(C(=O)N2CCN(CC=C(C)C)[C@@H]3CS(=O)(=O)C[C@@H]32)o1
A: 1.653%
B: -1.731%
C: 2.667%

Compound: COc1cccc(CNc2nc(C)cc(C)n2)c1OC
A: 3.667%
B: 2.056%
C: 21.92%

Compound: Cc1ccccc1CN(C)C(=O)Cn1nc(-c2ccc(F)cc2)oc1=O
A: 6.585%
B: -6.564%
C: 9.6%

Compound: CN(C)C1Cc2ccccc2N(S(=O)(=O)c2cccc(C#N)c2)C1 (stereo not drawn)
A: 4.645%
B: 2.482%
C: 9.677%

Compound: CC(C)Cn1cnnc1C1CCCN1C(=O)c1ccc(F)cc1F (stereo not drawn)
A: 5.95%
B: -3.64%
C: 7.042%

Compound: O=C(CCSc1ccc(F)cc1)N1CCN(c2cnccn2)CC1
A: 3.293%
B: 2.439%
C: 24.18%

Compound: CN(Cc1cccc(OC(F)(F)F)c1)C(=O)c1ccncc1F
A: 3.018%
B: -2.654%
C: 7.692%

Compound: O=C1CC(NCc2ccc(Cl)s2)CN1Cc1cccc(F)c1 (stereo not drawn)
A: 6.526%
B: -1.561%
C: -5.66%

Compound: O=S(=O)(N1CCOCC1)N1CCC(Oc2cnccn2)CC1
A: 3.431%
B: 3.351%
C: 13.54%

Compound: Cc1cnc(C(=O)N2CCN3C[C@H](OCc4cccnc4)C[C@H]3C2)cn1
A: 2.25%
B: -2.53%
C: -28%

The last 3 entries again:

* O=C1CC(NCc2ccc(Cl)s2)CN1Cc1cccc(F)c1 (stereo not drawn) | A: 6.526%; B: -1.561%; C: -5.66%
* O=S(=O)(N1CCOCC1)N1CCC(Oc2cnccn2)CC1 | A: 3.431%; B: 3.351%; C: 13.54%
* Cc1cnc(C(=O)N2CCN3C[C@H](OCc4cccnc4)C[C@H]3C2)cn1 | A: 2.25%; B: -2.53%; C: -28%